Data on 73 compounds can be found in PubChem BioAssay AID1362 (SRMLSC, 2008).

The structures appear in SMILES notation. This is one part of the list.

For orientation: inhibition means the change of the read-out against control, counted positive when it falls.

The nature of the test: growth inhibition of WT strain, primary screen, mitochondrial fusion inhibitor project, WT and mutant strains, chemical genetic (AID 1362). Note: tested in S. cerevisiae. The settings on record: mitochondrial fusion phenotypic screen, at 10 µM.
Regarding `CN(C)C(=O)OCCc1n(C)cc[n+]1C`, the inhibition is -6.26%.
The value for `CC1CCN(C(=O)Oc2c(Cl)cc(Cl)c3cccnc23)CC1` was -14.1%.
The value for `CCN(CC)CC(O)COC(=O)C(O)(c1ccccc1)C1CCCCC1` (stereo not drawn) was 6.31%; that for `COc1ccc(C2=NCC(CBr)S2)cc1` (stereo not drawn) was 0.32%; that for `COc1ccc(OP(C)(=O)Nc2ccc(Br)cc2)cc1` (stereo not drawn) was -3.36%.
Next, `CC(=O)N1C2C3N(C(C)=O)C1C1N(C(C)=O)C(C(N1C(C)=O)N3C(C)=O)N2C(C)=O`: 13.5%; `O=[N+]([O-])c1cccc2n[nH]nc12`: 7.37%; `Cc1ccc(NP(=O)(Oc2ccccc2)Oc2ccccc2)nc1`: 6.08%.
In the case of `CP(=O)(Oc1ccccc1)N1CCOC1=O` (stereo not drawn), the inhibition was 2.39%.
The value for `CCc1ccc(OP(C)(=O)Nc2cccnc2)cc1` (stereo not drawn) was 21.9%.
The value for `O=[N+]([O-])c1cc([N+](=O)[O-])c(CCNc2ccccc2)c([N+](=O)[O-])c1` was 33.7%.
The value for `CCc1nc2c(n1)c1c(non1O)c1c2no[n+]1[O-]` was 17.9%.
Turning to `CP(=O)(Nc1ccc2c(c1)OCCO2)Oc1ccccc1` (stereo not drawn), the inhibition was -6.23%.
In the case of `Cc1ccccc1NP(C)(=O)Nc1ccccc1C`, the inhibition is -7.23%.
Take `O=P(Nc1nccs1)(c1ccccc1)c1ccccc1`: the inhibition is -3.48%.
The value for `CC(C)C(=O)NC(Sc1ccccc1)C(Cl)(Cl)Cl` (stereo not drawn) was 7.91%; that for `CCOP(C)(=S)SCC(=O)NC(C)(CC)C(=O)O` (stereo not drawn) was 16.1%.
Next, `c1nnnn1CCn1cnnn1`: -6.03%.
The value for `CC(=O)NC(SC(=S)N(C)C)C(Cl)(Cl)Cl` (stereo not drawn) was -5.75%; that for `O=[N+]([O-])c1cc([N+](=O)[O-])c(NCC2CCS(=O)(=O)C2)c([N+](=O)[O-])c1` (stereo not drawn) was -0.95%.
Consider `C(Cc1nn[nH]n1)Cc1nn[nH]n1`, for which the inhibition is -1.81%.
Next, `O=C(OC1CN2CCC1CC2)c1cccc(Cl)c1` (stereo not drawn): 2.91%; `COc1ccc(OP(C)(=O)Nc2cccc(Br)c2)cc1` (stereo not drawn): 1.78%; `O=P(Nc1ccccn1)(c1ccc(Br)cc1)c1ccc(Br)cc1`: -2.23%.
Next, `CN(C)CCOC(=O)C(O)(c1ccccc1)C1CCCCC1` (stereo not drawn): 8.63%; `COc1ccc(NP(C)(=O)Oc2ccccc2OC)cc1` (stereo not drawn): -3.46%; `COC(=O)c1cc2c(s1)N=C(c1ccccc1)N(C)P2(=O)N1CCOCC1` (stereo not drawn): 7.16%.
Take `CC(=O)NC(SC(=S)N(CC(C)C)CC(C)C)C(Cl)(Cl)Cl` (stereo not drawn): the inhibition is 61.8%.
Take `Cc1ccc(OP(=O)(Nc2ccccn2)Oc2ccc(C)cc2)cc1`: the inhibition came to 16.1%.
The value for `CCC(=O)N1C2C3N(C(=O)CC)C1C1N(C(=O)CC)C(C(N1C(=O)CC)N3C(=O)CC)N2C(=O)CC` was -3.21%; that for `CCN(CC)CCCOC(=O)C(O)(c1ccccc1)C1CCCCC1` (stereo not drawn) was 5.79%.
Next, `CP(=O)(Nc1ccccc1)Oc1ccc(F)cc1` (stereo not drawn): 9.81%; `O=c1c2cc([N+](=O)[O-])ccc2[nH]c2c([N+](=O)[O-])cc([N+](=O)[O-])cc12`: 98.2%.
The value for `O=C(NC1CCS(=O)(=O)C1)NP(=S)(Oc1ccccc1)Oc1ccccc1` (stereo not drawn) was -12.5%; that for `CCNC(=S)/N=C(\N)N[N+](=O)[O-]` was 4.16%.
For `c1ccc(-c2nn[nH]n2)c(-c2nn[nH]n2)c1`, the inhibition is -7.33%.
Next, `CCOC(=O)NC(Sc1ccccc1)C(Cl)(Cl)Cl` (stereo not drawn): 28%.
Next, `CCOC(=O)c1ccc(NP(C)(=O)Oc2ccc(F)cc2)cc1` (stereo not drawn): -12.3%.
The value for `COc1ccc(OP(C)(=O)Nc2ccc(SC(F)(F)F)cc2)cc1` (stereo not drawn) was 0.46%; that for `O=C(OCCN1CCN(CCOCc2ccccc2)CC1)C(O)(c1ccccc1)c1ccccc1` was -12.5%.
Take `CC(=O)Nc1ccc(Oc2c([N+](=O)[O-])cc([N+](=O)[O-])cc2[N+](=O)[O-])cc1`: the inhibition amounted to 3.74%.
The value for `O=P1(Nc2nc3ccc(Cl)cc3s2)COc2ccccc2O1` (stereo not drawn) was -2.4%; that for `CCOc1ccc(C2=NCC(CBr)S2)cc1` (stereo not drawn) was 6.14%; that for `CP(=O)(Nc1ccccc1F)Oc1ccccc1` (stereo not drawn) was -47.8%.
The value for `CC(C)(C)C(=O)NC(Sc1ccccc1)C(Cl)(Cl)Cl` (stereo not drawn) was 11.4%; that for `CC(C)c1ccc(OP(C)(=O)Nc2ccc(SC(F)(F)F)cc2)cc1` (stereo not drawn) was -7.45%; that for `Cc1ccc(C)c(NP(C)(=O)Oc2ccccc2)c1` (stereo not drawn) was 0.62%.
Next, `Cc1cc(C)cc(OP(C)(=O)Nc2ccccn2)c1` (stereo not drawn): 7.67%; `CP(=O)(Nc1cccc(Br)c1)Oc1ccccc1` (stereo not drawn): 9.71%; `Cc1ccc(NCCc2c([N+](=O)[O-])cc([N+](=O)[O-])cc2[N+](=O)[O-])cc1`: 46.4%.
As to `CCOP(=O)(Nc1cccc2ccccc12)OCC`, the inhibition is -12.8%.
On to `COc1cc(C(=O)NCC2(N3CCOCC3)CCCCC2)cc(Cl)c1OC(C)C`, for which the inhibition is -6.1%.
In the case of `CCOC(=O)c1ccc(NP(C)(=O)Oc2cc(C)cc(C)c2)cc1` (stereo not drawn), the inhibition was -13.7%.
Next, `Cc1cccc(OCC(=O)OC2CN3CCC2CC3)c1` (stereo not drawn): 1.24%; `Cc1cc(C)cc(OP(C)(=O)Nc2ccc(C)cc2C)c1` (stereo not drawn): 8.23%; `O=[N+]([O-])c1ccc2c(c1)nnn2O`: -8.9%.
Next, `CC1=NCCc2c1[nH]c1ccccc21.O=[N+]([O-])c1cc([N+](=O)[O-])c(O)c([N+](=O)[O-])c1`: 20.7%; `CCOP1(=S)c2c(C)nn(CCC#N)c2N=C(c2ccc(F)cc2)N1C` (stereo not drawn): -6.37%; `CCOP1(=S)c2c(C)nn(CCC#N)c2N=C(c2ccccc2F)N1C` (stereo not drawn): -5.43%.
Next, `O=P(Nc1nccs1)(Oc1ccccc1)Oc1ccccc1`: 2.9%; `O=P(Nc1nccs1)(c1ccccc1)c1nc2ccccc2s1` (stereo not drawn): -0.22%; `CN1CCCCC1COC(=O)C1(O)c2ccccc2CCc2ccccc21` (stereo not drawn): 1.4%.
`COc1ccccc1OP(C)(=O)Nc1c(C)cccc1C` (stereo not drawn): the inhibition was -1.86%.
Regarding `O=P1(Nc2ncccn2)COc2ccccc2OC1`, the inhibition was found to be 19.9%.
Next, `Cc1ccc(OCC(=O)OC2CN3CCC2CC3)cc1` (stereo not drawn): 19.1%; `O=P1(Nc2ccc(Br)cn2)COc2ccccc2OC1`: 4.32%; `CCCOc1ccc(NP(C)(=O)Oc2ccc(Cl)cc2)cc1` (stereo not drawn): -25%.
Next, `CP(=O)(Nc1ccc(SC(F)(F)F)cc1)Oc1ccccc1` (stereo not drawn): -22.9%; `COc1cc(C2NCCC3(OCCO3)C2(C)C)cc(OC)c1OC.O=[N+]([O-])c1cc([N+](=O)[O-])c(O)c([N+](=O)[O-])c1` (stereo not drawn): 11.8%; `Cc1nn(-c2ccccc2)c2c1P(=O)(N1CCOCC1)N(C)C(c1ccccc1)=N2` (stereo not drawn): -6.71%.
Next, `CC1CCC(C(C)C)C(OP(=O)(Nc2ccccn2)c2ccccc2)C1` (stereo not drawn): -3.31%; `CN(C)C1(CNC(=O)c2ccc(S(C)(=O)=O)cc2)CCCCC1`: 11.5%; `Cc1nc2ccc3ccccc3c2s1.O=[N+]([O-])c1cc([N+](=O)[O-])c(O)c([N+](=O)[O-])c1`: 8.88%.
